Reference: PubChem BioAssay AID1347076 (National Center for Advancing Translational Sciences (NCATS), 2019)
Among all 400,000 compounds or so, about 13,000 (3.2%) were called active. The shares of active, inactive and inconclusive entries below differ from those in the screen. The call rests on the fitted dose curve; in most records, active means well fitted cell-killing curve with a large enough effect; inconclusive means small, poorly fitted or top-dose-only effect, or effect the other way; inactive means flat fitted curve, though single readings scatter. Potencies of inconclusive entries are doubtful fits and often do not repeat.

Experiment: qHTS assay for MDR1-selective chemotherapeutics: Primary screen using the drug-selected MDR subline cells KB-V1; further: nearly all actives have a fitted effect of over 60% in size
Details: KB-V1 MDR cells viability, CellTiter-Glo, 72 h; activity change, negative = cytotoxicity: at 46.1 µM (top of the series)
How it was run: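 KB-V1 MDR subline cells in DMEM (phenol-red free, 10% FBS) exposed to compounds in qHTS concentration series for 72 h at 37 degrees C. Viability read by CellTiter-Glo luminescence; concentration-effect curves fitted after normalization and correction.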
On the % scale 0 is the no-effect control and ±100 the full control effect; potency means the concentration at half of the fitted maximal effect.

Q: With `O=C(CCC(=O)N/N=C/c1cc(Cl)cc(Cl)c1O)NCc1ccccc1` as the compound, how does the “activity change, negative = cytotoxicity” value read?
A: The value was inactive: -15.7%.

Q: With `CN(C)Cc1nc2ccccc2c(=O)n1Cc1nc(-c2cccc([N+](=O)[O-])c2)cs1` as the compound, how does the Potency read?
A: The Potency was inconclusive: 5.8 µM [cytotoxic, partial curve].

Q: Which “activity change, negative = cytotoxicity” value does the source give for `COc1ccccc1CCN1COc2c(cc3c(C)c(C)c(=O)oc3c2C)C1` here?
A: The value was inactive: -10%.

Q: Which Potency does the source give for `Cc1ccc(N(CC(=O)NC2CCCCC2)C(=O)CNC(=O)c2ccco2)cc1C` here?
A: The Potency was inconclusive: 25.9 µM [cytotoxic, single point].

Q: With `COc1ccc(-c2nc(CN3CCC(C(=O)NC4CC4)CC3)c(C)o2)cc1OC` as the compound, how does the Potency read?
A: The Potency was inconclusive: 20.6 µM [rising, single point].

Q: For `CC(OC(=O)C1CC1)C(=O)Nc1ccc([N+](=O)[O-])cc1Cl` (stereo not given), which “activity change, negative = cytotoxicity” value is on record?
A: The value was inactive: -8.99%.

Q: For `Cc1ccc(C)c(C(O)c2ncc(-c3cccc(C(F)(F)F)c3)[nH]2)c1` (stereo not given), which “activity change, negative = cytotoxicity” value is on record?
A: The value was inactive: 5.9%.

Q: Which Potency does the source give for `C=CCn1c(C)cc(C(=O)COC(=O)c2ccc3c(c2)NC(=O)CS3)c1C` here?
A: Its Potency is inconclusive: 20.6 µM [cytotoxic, single point].

Q: Which Potency does the source give for `Cc1c(C(=O)N2CCOCC2)sc2nc(-c3ccccc3)cn12` here?
A: Its Potency is active: 23.1 µM.

Q: With `Cc1sc(NC(=O)/C=C/c2ccc3c(c2)OCO3)nc1-c1ccccc1` as the compound, how does the Potency read?
A: The Potency was active: 2.91 µM.

Q: Which Potency does the source give for `CC[C@]12c3[nH]c4cc(-c5ccco5)ccc4c3CCN1C(=O)[C@@H](CC(=O)NCC13CC4CC(CC(C4)C1)C3)C[C@@H]2C(=O)N1CCN(C(=O)C2CC2)CC1` here?
A: The Potency was inconclusive: 23.1 µM [cytotoxic, single point].

Q: With `O=C(COC(=O)c1c2c(nc3ccccc13)/C(=C/c1cccc([N+](=O)[O-])c1)CCC2)NC1CCS(=O)(=O)C1` (stereo not given) as the compound, how does the Potency read?
A: The Potency was active: 23.1 µM.

Q: With `Clc1ccc(-c2ccnc(-n3cccc3)n2)s1` as the compound, how does the Potency read?
A: The Potency was inconclusive: 29.1 µM [rising, single point].

Q: With `CCCCCOc1ccc(C(=O)CCC(=O)NC(C)c2ccc(S(N)(=O)=O)cc2)cc1` (stereo not given) as the compound, how does the Potency read?
A: Its Potency is inconclusive: 23.1 µM [rising, single point].

Q: With `CCCc1ccc(S(=O)(=O)N2CCC(c3nnc(-c4cccc(C)c4)o3)CC2)cc1` as the compound, how does the “activity change, negative = cytotoxicity” value read?
A: Its value is inactive: 0%.

Q: With `CC(=O)NCCn1c(SCc2ccc(C)cc2C)nc2ccccc2c1=O` as the compound, how does the Potency read?
A: The Potency was inconclusive: 9.2 µM [cytotoxic, partial curve].

Q: For `Cc1cc(C(=O)N(C)CC(=O)Nc2ccccc2C(F)(F)F)c(C)o1`, which Potency is on record?
A: The Potency was inconclusive: 18.4 µM [cytotoxic, single point].

Q: For `CC1(C)Oc2c(ccc(O)c2CN2CCOCC2)C2=C1CCCC2`, which Potency is on record?
A: Its Potency is active: 18.4 µM.

Q: For `O=C(Nc1ccc2c(c1)OCO2)C1Cc2c(-c3ccc(Cl)cc3)ccnc2O1` (stereo not given), which “activity change, negative = cytotoxicity” value is on record?
A: The value was inactive: -26%.

Q: With `CCOC(=O)[C@]12CCC=C1N(Cc1ccc3c(c1)OCO3)C(=O)[C@H](CC(=O)N1CCCC1)C2` as the compound, how does the Potency read?
A: The Potency was inconclusive: 6.51 µM [cytotoxic, partial curve].

Q: With `S=C(NCc1ccccc1)N1CCN(C(=S)NCc2ccccc2)CC1` as the compound, how does the Potency read?
A: The Potency was inconclusive: 29.1 µM [rising, single point].

Q: With `O=C(CSC1=Nc2ccccc2C2CC=NN12)Nc1ccc(F)cc1Cl` (stereo not given) as the compound, how does the Potency read?
A: Its Potency is inconclusive: 13 µM [cytotoxic, partial curve, poor fit].

Q: For `CCOc1ccccc1NC(=O)Cn1ncc2c([nH]c3ccccc32)c1=O`, which “activity change, negative = cytotoxicity” value is on record?
A: The value was inactive: 2.33%.

Q: Which Potency does the source give for `O=S(Cc1ccc(Br)cc1)Cc1nnc(SCc2c(Cl)cccc2Cl)n1-c1ccccc1` (stereo not given) here?
A: The Potency was active: 0.82 µM.

Q: With `CCn1c(=O)c2cc(C(=O)NCCCN3CCN(c4ccc(F)cc4)CC3)sc2c2ccccc21` as the compound, how does the “activity change, negative = cytotoxicity” value read?
A: Its value is inactive: 7.51%.

Q: Which “activity change, negative = cytotoxicity” value does the source give for `CCc1nnc(NC(=O)CCNC(=O)c2ccco2)s1` here?
A: Its value is inactive: -14.5%.

Q: Which Potency does the source give for `CCN(CC)S(=O)(=O)c1cccc(C(=O)Nc2ccc3c(c2)OCO3)c1` here?
A: The Potency was inconclusive: 29.1 µM [cytotoxic, single point].

Q: For `Cc1ccc(C(=O)NCC(=O)N2CCC3(CC2)NCCc2[nH]cnc23)cc1C`, which Potency is on record?
A: Its Potency is inconclusive: 14.6 µM [rising, single point].

Q: With `Cc1ccc2nc(N)nnc2c1` as the compound, how does the Potency read?
A: The Potency was inconclusive: 20.6 µM [rising, single point].

Q: With `CC(C)Oc1ccc(CNC(=O)c2ccc3c(c2)nc2n3CCCCC2)cc1` as the compound, how does the “activity change, negative = cytotoxicity” value read?
A: The value was inactive: -8.31%.

Q: With `CCc1ccc2[nH]c(=O)c(CN(CCN(CC)CC)C(=S)NCc3ccco3)cc2c1` as the compound, how does the Potency read?
A: Its Potency is inconclusive: 20.6 µM [cytotoxic, partial curve, poor fit].

Q: Which “activity change, negative = cytotoxicity” value does the source give for `CC(C)(C)C(=O)Nc1ccc(NC(=O)c2ccco2)nc1` here?
A: The value was inactive: 32.1%.

Q: With `O=C(COC(=O)CNS(=O)(=O)c1c(F)cccc1F)NC(=O)NC1CCCCC1` as the compound, how does the “activity change, negative = cytotoxicity” value read?
A: The value was inactive: 20.4%.

Q: With `Cc1ccc(S(=O)(=O)N(CC(=O)N/N=C/c2ccco2)c2cc(Cl)cc(Cl)c2)cc1` as the compound, how does the Potency read?
A: The Potency was active: 18.4 µM.

Q: For `C[C@H](CO)N1C[C@H](C)[C@@H](CN(C)Cc2ccccc2)Oc2ccc(NC(=O)Cn3cnnn3)cc2C1=O`, which “activity change, negative = cytotoxicity” value is on record?
A: Its value is inactive: 0.0002%.

Q: For `Cc1cccc(N2CCN(CC(=O)Nc3ccccc3[N+](=O)[O-])CC2)c1C`, which Potency is on record?
A: Its Potency is inconclusive: 23.1 µM [cytotoxic, single point].

Q: Which Potency does the source give for `COc1cccc(CN=c2c([N+](=O)[O-])nn(-c3ccccc3C)n2O)c1` here?
A: The Potency was inconclusive: 29.1 µM [cytotoxic, single point].

Q: With `C=CCC[C@H](Cc1ccc(F)cc1)C(=O)OC[C@H](C)NC(=O)[C@H](CC=C)CC(=O)NCCO` as the compound, how does the Potency read?
A: The Potency was inconclusive: 20.6 µM [rising, single point].

Q: For `CCOc1ccc(Br)cc1C1C(C(=O)OC)=C(C)NC2=C1C(=O)c1ccccc12` (stereo not given), which Potency is on record?
A: The Potency was inconclusive: 23.1 µM [cytotoxic, single point].

Q: For `CC(C)N1C/C(=C/c2cccnc2)C(=O)/C(=C/c2cccnc2)C1`, which Potency is on record?
A: The Potency was active: 14.6 µM.

Q: For `CCOC(=O)N1CCN(C(=O)CCN2C(=O)COc3ccc(C)cc32)CC1`, which Potency is on record?
A: The Potency was inconclusive: 9.2 µM [cytotoxic, partial curve, poor fit].

Q: With `COc1ccc(-c2nc3cnccn3c2Nc2ccc(C)cc2)cc1` as the compound, how does the “activity change, negative = cytotoxicity” value read?
A: Its value is inactive: 6.04%.

Q: For `COc1ccc(C)cc1NC(=O)c1c2c(nc3ccccc13)C(=O)N(C1CCCCC1)C2`, which “activity change, negative = cytotoxicity” value is on record?
A: The value was inactive: -22.1%.

Q: With `O=C(O)c1ccc(NN=Cc2cc(=O)[nH]c(=O)[nH]2)cc1` as the compound, how does the “activity change, negative = cytotoxicity” value read?
A: The value was inactive: 14.5%.

Q: With `C/C(N)=C(/C#N)C(=O)CSc1nc2ccccc2c(=O)n1-c1ccc(C)c(Cl)c1` as the compound, how does the Potency read?
A: Its Potency is inconclusive: 29.1 µM [cytotoxic, single point].
